# About 6,200 (1.8%) of roughly 340,000 compounds were called active. The inconclusive results got no clear call from the source; some entries with a clear call stand among them for comparison. Calls follow the shape of the dose curve; as a rule, active = well fitted activation curve with a large enough effect; inconclusive = small, poorly fitted or top-dose-only effect; inactive = no such curve, though single readings can be large or run the other way. Where the call is inconclusive, the potency comes from a doubtful curve fit.
# Experiment: A quantitative high throughput screen for small molecules that induce DNA re-replication in SW480 colon adenocarcinoma cells. Also: nearly all actives have a fitted effect of over 55% in size. As to re-replication activation: % of control where 0% means no effect.
# Conditions: Hoechst DNA content imaging, 48 h; re-replication activation: at 46.1 µM (top of the series) unless noted
# In short: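 Hoechst fluorescence of nuclei (405 nm excitation, 500-530 nm emission) measured by plate-scanning imager after 48 hr compound exposure at 37 C; re-replication scored as increased number of nuclei with elevated intensity.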
# Potency is read from the fitted curve at half-maximal effect.
SMILES,Potency,re-replication activation
Cc1ccsc1/C=N/Nc1ncc(Cl)cc1Cl,"inconclusive: 29.1 µM [activator, single point]",–
O=C(c1ccc2nsnc2c1)N1CCN(c2ccc([N+](=O)[O-])cc2)CC1,"inconclusive: 29.1 µM [activator, single point]",–
Cc1ccccc1N(C(=O)c1cccs1)c1nc2ccccc2s1,"inconclusive: 29.1 µM [activator, single point]",–
Cc1cc(C)c(C(=O)COC(=O)c2cccc(S(=O)(=O)NCc3ccccc3)c2)cc1C,–,inactive: 8.46%
CN(C)CCN(C(=O)c1ccc2c(c1)OCCO2)c1nc2ccc(Cl)cc2s1,–,inactive: 7.79%
COc1ccc(CCn2c(-n3nc(C)cc3C)nc3c2c(=O)[nH]c(=O)n3C)cc1,"inconclusive: 2.06 µM [activator, full curve, poor fit]",–
N#C/C(C(=O)NCc1ccco1)=C1/SC=C(c2ccccc2)N1c1ccccc1,active: 29.1 µM,–
O=C(CCl)Nc1ccc2c(c1)OCO2,"inconclusive: 18.4 µM [activator, single point]",–
O=[N+]([O-])c1cc(S(=O)(=O)NCCCN2CCOCC2)ccc1Cl,"inconclusive: 29.1 µM [activator, single point]",–
CC(C)(C)C1CCC2(CC1)C(C#N)=C(SCC(=O)Nc1ccccc1)NC(=O)C2C#N (stereo not drawn),"inconclusive: 25.9 µM [activator, partial curve, poor fit]",–
Cc1ccc(C)c(NS(=O)(=O)c2cc(C(=O)NCCSC3CCCCC3)ccc2C)c1,"inconclusive: 29.1 µM [activator, partial curve, poor fit]",–
COc1cc(C(=O)Nc2ccc3c(c2)C(=O)c2ccccc2C3=O)cc(OC)c1OC,–,inactive: -4.41%
OCCC1CN(Cc2cccc3nccnc23)CCN1Cc1ccc(F)cc1 (stereo not drawn),–,inactive: -32.9%
Nc1ccc2nc3c(=O)[nH]c(=S)[nH]c3nc2c1,active: 4.61 µM,–
Cc1ccc(CS(=O)Cc2ccc(C(=O)NCCc3ccccc3)o2)cc1 (stereo not drawn),"inconclusive: 20.6 µM [activator, single point]",–
O=C(N/C(=C\c1ccc(Cl)cc1)C(=O)N1CCOCC1)c1ccco1,"inconclusive: 29.1 µM [activator, partial curve, poor fit]",–
COc1ccc(/C=C/C(=O)Nc2sc(Cc3ccccc3)c(C)c2C(N)=O)cc1,"inconclusive: 25.9 µM [activator, single point]",–
C=CCN(C(=O)c1csnn1)C(C(=O)NC1CCCC1)c1ccc(F)cc1 (stereo not drawn),–,inactive: -6.32%
CCCCC(=O)Nc1ccccc1CC,"inconclusive: 18.4 µM [activator, single point]",–
CCn1c(C)cc(/C=C2/NC(=O)N(Cc3ccccc3F)C2=O)c1C,"inconclusive: 29.1 µM [activator, partial curve, poor fit]",–
COc1ccc(CN2CCNC(=O)C2CC(=O)NC2CCCC2)c(C)c1C (stereo not drawn),"inconclusive: 29.1 µM [activator, single point]",–
O=S(=O)(c1cccc(C(F)(F)F)c1)N1CCC(c2cc(-c3cccc4ccccc34)n[nH]2)CC1,"inconclusive: 18.4 µM [activator, single point]",–
O=C(Nc1ccccc1C(=O)NCc1ccc(Cl)cc1)c1ccco1,"inconclusive: 32.6 µM [activator, partial curve, poor fit]",–

SMILES,Potency,re-replication activation
O=C(Nc1ccc(NC(=O)c2ccccc2Cl)nc1)c1ccncc1,"inconclusive: 2.06 µM [activator, partial curve, poor fit]",–
CC(=O)Nc1ccc(-n2c(C)ccc2-c2ccccc2)cc1,"inconclusive: 18.4 µM [activator, single point]",–
N=Nc1c(O)n(CC(=O)Nc2ccccc2)c2ccccc12,"inconclusive: 18.4 µM [activator, single point]",–
CCOc1ccc(OCCC(=O)N2CCN(S(=O)(=O)c3ccc(F)cc3)CC2)cc1,"inconclusive: 29.1 µM [activator, single point]",–
O=Cc1ccccc1OCc1ccc2c(c1)OCO2,active: 18.4 µM,–
O=P1(NC2CCCC2)OCC2(CO1)COP(=O)(NC1CCCC1)OC2 (stereo not drawn),–,inactive: -1.28%
CCCCN1C(=O)C(O)(CC(=O)c2ccccc2OC)c2ccccc21 (stereo not drawn),–,inactive: -2.44%
CN1C(=S)SC(/[N+]([O-])=C/c2cccnc2)C1(C)C (stereo not drawn),"inconclusive: 35.5 µM [activator, partial curve, poor fit]",–
CCOc1cccc(-c2nn(-c3ccccc3)cc2/C=C(/C#N)C(=O)NCCCn2ccnc2)c1,"inconclusive: 20.6 µM [activator, single point]",–
Clc1ccc(Nc2ncnc3c2cnn3-c2ccccc2)cc1,–,inactive: -1.15%
O=C(/C=C/c1ccccc1Cl)N1CCOCC1,–,inconclusive: 47.4% [activator]
CNC(=O)c1[nH]cnc1C(=O)Nc1ccc(OC)cc1,–,inactive: -5.22%
CCCSc1nnc(NC(=O)Nc2ccccc2)s1,"inconclusive: 29.1 µM [activator, single point]",–
O=C1C=C(c2ccc(F)nc2)C[C@@H](c2ccc3c(c2)OCO3)C1,–,inactive: -11.3%
C(=N\N1CCN(c2ccccn2)CC1)/c1ccccn1,–,inactive: -5.46%
OC1(c2ccc(Cl)cc2)CN(c2ccccc2)C2=[N+]1CCS2 (stereo not drawn),"inconclusive: 0.651 µM [activator, full curve, poor fit]",–
N=C(N)SCc1ccccn1,"inconclusive: 16.4 µM [activator, single point]",–
Cc1ccc(N2CC(C(=O)Nc3ccc(C)c(S(=O)(=O)N(C)C)c3)CC2=O)cc1 (stereo not drawn),–,inactive: -1.71%
COc1ccc(CNC(=O)c2cccc(-c3ccc(C)c4ccccc34)n2)cc1,"inconclusive: 29.1 µM [activator, single point]",–
COc1ccc(/C=N/NC(=O)c2ccc(CSc3nc(C)cc(C)n3)cc2)c(OC)c1OC,"inconclusive: 29.1 µM [activator, partial curve, poor fit]",–
Cc1cc2nc3n(c2cc1C)CC1CC(C(=O)NCc2ccco2)N(C)C31 (stereo not drawn),"inconclusive: 1.46 µM [activator, partial curve, poor fit]",–
CNC(=S)N/N=C/c1c(C)nn(-c2ccc(F)cc2)c1Cl,"inconclusive: 7.08 µM [activator, single point]",–
CC1CCN(S(=O)(=O)c2ccc(NC(=O)[C@@H]3CCCN3C(=O)c3cccs3)cc2)CC1,–,inactive: 9.68%

SMILES,Potency,re-replication activation
CC(=O)c1cccc(NC(=S)NC(=O)c2ccc(C)cc2)c1,–,inactive: -1.9%
CCOC(=O)N1CCC(NC(=O)c2cc(COc3ccc(F)cc3Cl)on2)CC1,–,inactive: -7.79%
O=C1NC[C@H](Cc2ccccc2)N(C[C@H]2CCCN2C[C@H](Cc2ccccc2)N2C[C@H](Cc3ccccc3)N(CC3CCCCC3)C(=O)C2=O)C1=O,"inconclusive: 0.0041 µM [activator, full curve, poor fit]",–
Cc1ccc(N/C(N)=N/c2nc(CSc3nnc(C)s3)cc(=O)[nH]2)c(C)c1,"inconclusive: 1.46 µM [activator, partial curve, poor fit]",–
O=C(/C=C/c1cccc(F)c1)Nc1nccs1,"inconclusive: 29.1 µM [activator, single point]",–
COC(=O)[C@]1(Cc2ccccc2)N[C@H](c2ccc(-c3ccc(F)cc3)cc2)[C@@H]2C(=O)N(C)C(=O)[C@@H]21,"inconclusive: 0.164 µM [activator, full curve, poor fit]",–
CCc1nccn1CCC(=O)NC1CCCc2c1cnn2-c1ccc(F)cc1F (stereo not drawn),"inconclusive: 18.4 µM [activator, partial curve, poor fit]",–
CCOc1ccc(NS(=O)(=O)c2ccc(C(=O)NCCN3CCOCC3)cc2)cc1,–,inactive: 0.64%
COc1ccccc1C1CN(c2ccccc2)N=C1c1cccs1 (stereo not drawn),–,inactive: 18.7%
Cc1ccnc(N/N=C/c2ccco2)n1,active: 16.4 µM,–
O=C(Cn1nc(Cl)nc1Cl)c1ccc2c(c1)OCCO2,"inconclusive: 13 µM [activator, partial curve, poor fit]",–
CCOc1cc(C(=O)NN=C2CCCC2)cc(OCC)c1OCC,"inconclusive: 29.1 µM [activator, single point]",–
O=C(NC1CCN(S(=O)(=O)c2ccccc2F)CC1)c1cccnc1,–,inactive: -16%
CCN(CC)C(=O)C1CCCN(c2ccccc2[N+](=O)[O-])C1 (stereo not drawn),"inconclusive: 29.1 µM [activator, single point]",–
CC1(C)C2CCC1(CS(=O)(=O)NCc1ccc(C(F)(F)F)cc1)C(=O)C2 (stereo not drawn),"inconclusive: 23.1 µM [activator, single point]",–
Cc1[nH]c(=S)c(C#N)c(C)c1CCC#N,"inconclusive: 13 µM [activator, partial curve, poor fit]",–
N#CCCN(CCC#N)C(=S)NC1CC2C=CC1C2 (stereo not drawn),"inconclusive: 0.146 µM [activator, full curve, poor fit]",–
CC(=NNC(=O)c1ccncc1)c1ccc(O)cc1O,"inconclusive: 0.651 µM [activator, full curve, poor fit]",–
Cc1cc(C)c(Cn2c3ccccc3c3cnn(CC(=O)NCCN4CCOCC4)c(=O)c32)c(C)c1,–,inconclusive: 71% [activator]
CCOC(=O)N=Nc1c2ccccc2c2nc3no[nH]c3nc12,"inconclusive: 0.411 µM [activator, full curve, poor fit]",–
O=C(c1ccc(Br)cc1)c1coc2ccc(O)cc12,"inconclusive: 29.1 µM [activator, single point]",–
COC(=O)C1=C(C)N=C2SC(C#N)=C(N)N2C1c1ccc(OCc2ccccc2)cc1 (stereo not drawn),"inconclusive: 14.6 µM [activator, partial curve]",–

# Four neighbouring compounds already listed, quoted:
SMILES,Potency,re-replication activation
Cc1cc(C)c(Cn2c3ccccc3c3cnn(CC(=O)NCCN4CCOCC4)c(=O)c32)c(C)c1,–,inconclusive: 71% [activator]
CCOC(=O)N=Nc1c2ccccc2c2nc3no[nH]c3nc12,"inconclusive: 0.411 µM [activator, full curve, poor fit]",–
O=C(c1ccc(Br)cc1)c1coc2ccc(O)cc12,"inconclusive: 29.1 µM [activator, single point]",–
COC(=O)C1=C(C)N=C2SC(C#N)=C(N)N2C1c1ccc(OCc2ccccc2)cc1 (stereo not drawn),"inconclusive: 14.6 µM [activator, partial curve]",–

# From PubChem BioAssay AID624297 (National Center for Advancing Translational Sciences (NCATS), 2012)
